From patent publication US20210115146A1
No constants are given. Whether binding was seen depends on the method and setting.

How the values were obtained:
Experiment in all cases: ELISA, antigen coated at 2 µg/mL, anti-cMyc-HRP detection
PD-1.his = biological target: PD-1.his
Factor Eight = biological target: Factor Eight
VEGF.his = biological target: VEGF.his
CD3.his = biological target: CD3.his
OX40.his = biological target: OX40.his
CD22.his = biological target: CD22.his
CD40 = biological target: CD40
CD147 = biological target: CD147
CTLA4.his = biological target: CTLA4.his
FGFR.his = biological target: FGFR.his

Measured: binding

B1: W5626-2C2-z22 (VHH) (VHH, not shown: small tags and cut ends)
VHH: EVQLVESGGGLVQPGGSLRLSCAASGRTHSNYVMGWFRQAPGQEREFVAGISRTYGNTYYRDSVEGRFTISRDNSKNTLYLQMNSLRAEDTAVYYCAADPTRSEVILTTSHRYVYWGQGTLVTVSS
no binding (tested: 10 µg/ml): all assays above

B2: W5626-2C10-z5 (VHH) (VHH, not shown: small tags and cut ends)
VHH: AVQLVESGGGLVQPGGSLTLSCAASGRTFSSYAMGWFRQAPGKEREFVAADRWSGGNTRYADSVKGRFTISRDNAKNTLYLQMNSLRAEDTAVYYCAATYLSSDYEWGVPPKAYDYDYWGQGTLVTVSS
no binding (tested: 10 µg/ml): all assays above
